According to the supplement of paper PMC11438910:
The list shows a part of the results. Most of these values are background signal.

Assays:
Assay in all cases: fluorescence intensity of antibody binding to polysaccharide-coupled beads; higher = stronger binding
[1] = molecular target: pneumococcal polysaccharide C-Poly-1
[2] = molecular target: pneumococcal polysaccharide C-Poly-2
[3] = molecular target: pneumococcal polysaccharide Pn1
[4] = molecular target: pneumococcal polysaccharide Pn10A
[5] = molecular target: pneumococcal polysaccharide Pn10B
[6] = molecular target: pneumococcal polysaccharide Pn10C
[7] = molecular target: pneumococcal polysaccharide Pn10F
[8] = molecular target: pneumococcal polysaccharide Pn11A
[9] = molecular target: pneumococcal polysaccharide Pn11B
[10] = molecular target: pneumococcal polysaccharide Pn11C
[11] = molecular target: pneumococcal polysaccharide Pn11D
[12] = molecular target: pneumococcal polysaccharide Pn11F
[13] = antibody concentration 0.1 ng/mL
[14] = antibody concentration 0.534724 ng/mL
[15] = antibody concentration 2.8593 ng/mL
[16] = antibody concentration 15.2894 ng/mL
[17] = antibody concentration 81.7561 ng/mL
[18] = antibody concentration 437.17 ng/mL
[19] = antibody concentration 2337.65 ng/mL
[20] = antibody concentration 12500 ng/mL

B1: 4-127.5 (protein)
chain 1: QVQLQESGPGLVKPSETLSLTCAVSGYSISSGYGWSWIRQPPGKGLEWIGYIGGSDSSTNYNPSLKSRVTISKDTSKNQLSLKLRSVTAADTAVYYCGSRGAVAGLGGLDSWGQGLLVTVSS
chain 2: QSVLTQPPSVSGAPGQRVTISCTGSSSNIGAGYGVQWYQQLPGTAPKLLIYENNKRPSGVFDRFSGSQSGTSGSLTITGLQSEDEADYYCQSYDSSLKAVLFGGGTRLTVL
Question: Which fluorescence intensity [1, 13] does the source give for B1 here?
Answer: 27 MFI

Question: What about the fluorescence intensity [1, 14] of the same binder?
Answer: 29.5 MFI

Question: And the fluorescence intensity [1, 15]?
Answer: 28.5 MFI

Question: And the fluorescence intensity [1, 16]?
Answer: 27.5 MFI

Question: What about the fluorescence intensity [1, 17] of the same binder?
Answer: 26.2 MFI

Question: What about the fluorescence intensity [1, 18] of the same binder?
Answer: 29 MFI

Question: And the fluorescence intensity [1, 19]?
Answer: 37.5 MFI

Question: What about the fluorescence intensity [1, 20] of the same binder?
Answer: 260 MFI

Question: And the fluorescence intensity [2, 13]?
Answer: 21 MFI

Question: And the fluorescence intensity [2, 14]?
Answer: 22 MFI

Question: And the fluorescence intensity [2, 15]?
Answer: 21 MFI

Question: What about the fluorescence intensity [2, 16] of the same binder?
Answer: 21.5 MFI

Question: And the fluorescence intensity [2, 17]?
Answer: 19.5 MFI

Question: What about the fluorescence intensity [2, 18] of the same binder?
Answer: 23 MFI

Question: And the fluorescence intensity [2, 19]?
Answer: 33 MFI

Question: What about the fluorescence intensity [2, 20] of the same binder?
Answer: 198 MFI

Question: And the fluorescence intensity [3, 13]?
Answer: 15 MFI

Question: And the fluorescence intensity [3, 14]?
Answer: 14.8 MFI

Question: What about the fluorescence intensity [3, 15] of the same binder?
Answer: 15 MFI

Question: And the fluorescence intensity [3, 16]?
Answer: 15 MFI

Question: What about the fluorescence intensity [3, 17] of the same binder?
Answer: 13.5 MFI

Question: What about the fluorescence intensity [3, 18] of the same binder?
Answer: 14.5 MFI

Question: And the fluorescence intensity [3, 19]?
Answer: 18.2 MFI

Question: What about the fluorescence intensity [3, 20] of the same binder?
Answer: 33.5 MFI

Question: And the fluorescence intensity [4, 13]?
Answer: 27.8 MFI

Question: What about the fluorescence intensity [4, 14] of the same binder?
Answer: 27.5 MFI

Question: What about the fluorescence intensity [4, 15] of the same binder?
Answer: 27 MFI

Question: And the fluorescence intensity [4, 16]?
Answer: 27 MFI

Question: And the fluorescence intensity [4, 17]?
Answer: 26.5 MFI

Question: What about the fluorescence intensity [4, 18] of the same binder?
Answer: 28 MFI

Question: And the fluorescence intensity [4, 19]?
Answer: 27.5 MFI

Question: And the fluorescence intensity [4, 20]?
Answer: 38.5 MFI

Question: And the fluorescence intensity [5, 13]?
Answer: 24.2 MFI

Question: And the fluorescence intensity [5, 14]?
Answer: 25 MFI

Question: What about the fluorescence intensity [5, 15] of the same binder?
Answer: 24.5 MFI

Question: What about the fluorescence intensity [5, 16] of the same binder?
Answer: 25.5 MFI

Question: And the fluorescence intensity [5, 17]?
Answer: 26.2 MFI

Question: And the fluorescence intensity [5, 18]?
Answer: 25.2 MFI

Question: And the fluorescence intensity [5, 19]?
Answer: 29.8 MFI

Question: What about the fluorescence intensity [5, 20] of the same binder?
Answer: 42.5 MFI

Question: What about the fluorescence intensity [6, 13] of the same binder?
Answer: 16.5 MFI

Question: And the fluorescence intensity [6, 14]?
Answer: 16.5 MFI

Question: What about the fluorescence intensity [6, 15] of the same binder?
Answer: 17.5 MFI

Question: And the fluorescence intensity [6, 16]?
Answer: 18 MFI

Question: What about the fluorescence intensity [6, 17] of the same binder?
Answer: 18.8 MFI

Question: And the fluorescence intensity [6, 18]?
Answer: 17.2 MFI

Question: What about the fluorescence intensity [6, 19] of the same binder?
Answer: 20.5 MFI

Question: And the fluorescence intensity [6, 20]?
Answer: 33 MFI

Question: What about the fluorescence intensity [7, 13] of the same binder?
Answer: 20.5 MFI

Question: And the fluorescence intensity [7, 14]?
Answer: 21.8 MFI

Question: And the fluorescence intensity [7, 15]?
Answer: 21 MFI

Question: What about the fluorescence intensity [7, 16] of the same binder?
Answer: 20.5 MFI

Question: And the fluorescence intensity [7, 17]?
Answer: 21 MFI

Question: And the fluorescence intensity [7, 18]?
Answer: 21.5 MFI

Question: What about the fluorescence intensity [7, 19] of the same binder?
Answer: 23.5 MFI

Question: And the fluorescence intensity [7, 20]?
Answer: 28.8 MFI

Question: What about the fluorescence intensity [8, 13] of the same binder?
Answer: 30.5 MFI

Question: And the fluorescence intensity [8, 14]?
Answer: 30.8 MFI

Question: What about the fluorescence intensity [8, 15] of the same binder?
Answer: 28.5 MFI

Question: And the fluorescence intensity [8, 16]?
Answer: 28.8 MFI

Question: And the fluorescence intensity [8, 17]?
Answer: 29 MFI

Question: And the fluorescence intensity [8, 18]?
Answer: 30 MFI

Question: And the fluorescence intensity [8, 19]?
Answer: 36.5 MFI

Question: What about the fluorescence intensity [8, 20] of the same binder?
Answer: 43.8 MFI

Question: What about the fluorescence intensity [9, 13] of the same binder?
Answer: 27.5 MFI

Question: And the fluorescence intensity [9, 14]?
Answer: 27.2 MFI

Question: And the fluorescence intensity [9, 15]?
Answer: 26.2 MFI

Question: What about the fluorescence intensity [9, 16] of the same binder?
Answer: 27 MFI

Question: And the fluorescence intensity [9, 17]?
Answer: 28.8 MFI

Question: What about the fluorescence intensity [9, 18] of the same binder?
Answer: 30.5 MFI

Question: What about the fluorescence intensity [9, 19] of the same binder?
Answer: 34.5 MFI

Question: And the fluorescence intensity [9, 20]?
Answer: 49 MFI

Question: And the fluorescence intensity [10, 13]?
Answer: 23.2 MFI

Question: And the fluorescence intensity [10, 14]?
Answer: 22.5 MFI

Question: What about the fluorescence intensity [10, 15] of the same binder?
Answer: 23 MFI

Question: And the fluorescence intensity [10, 16]?
Answer: 22.5 MFI

Question: What about the fluorescence intensity [10, 17] of the same binder?
Answer: 22 MFI

Question: And the fluorescence intensity [10, 18]?
Answer: 26.5 MFI

Question: What about the fluorescence intensity [10, 19] of the same binder?
Answer: 50 MFI

Question: What about the fluorescence intensity [10, 20] of the same binder?
Answer: 284 MFI

Question: And the fluorescence intensity [11, 13]?
Answer: 23.5 MFI

Question: And the fluorescence intensity [11, 14]?
Answer: 23.8 MFI

Question: What about the fluorescence intensity [11, 15] of the same binder?
Answer: 23 MFI

Question: What about the fluorescence intensity [11, 16] of the same binder?
Answer: 25.8 MFI

Question: And the fluorescence intensity [11, 17]?
Answer: 22.5 MFI

Question: What about the fluorescence intensity [11, 18] of the same binder?
Answer: 24.8 MFI

Question: And the fluorescence intensity [11, 19]?
Answer: 35 MFI

Question: And the fluorescence intensity [11, 20]?
Answer: 125 MFI

Question: What about the fluorescence intensity [12, 13] of the same binder?
Answer: 14 MFI

Question: And the fluorescence intensity [12, 14]?
Answer: 14.2 MFI
